Measurements: paper PMC7819943, “Rice protein-binding microarrays: a tool to detect cis-acting elements near promoter regions in rice”
The other results are listed elsewhere or left out.

Target: T1, OsSMF1 (Oryza sativa, UniProt Q6ZLB0 1-436)
T1 sequence: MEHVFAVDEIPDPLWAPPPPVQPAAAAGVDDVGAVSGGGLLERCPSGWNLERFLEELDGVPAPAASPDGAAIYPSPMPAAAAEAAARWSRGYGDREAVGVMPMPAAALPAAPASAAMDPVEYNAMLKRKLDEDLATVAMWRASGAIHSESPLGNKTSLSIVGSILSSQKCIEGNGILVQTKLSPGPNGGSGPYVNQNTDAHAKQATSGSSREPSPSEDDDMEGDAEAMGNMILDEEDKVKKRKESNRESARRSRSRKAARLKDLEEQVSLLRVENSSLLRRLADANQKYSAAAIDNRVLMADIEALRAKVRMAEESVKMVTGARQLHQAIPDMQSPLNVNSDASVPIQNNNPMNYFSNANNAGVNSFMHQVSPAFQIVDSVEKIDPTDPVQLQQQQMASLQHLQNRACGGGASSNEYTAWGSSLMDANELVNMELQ
Experiment: protein-binding microarray (RPBM); PBS, 2% BSA, 51.3 ng/ul salmon testes DNA, 50 uM zinc acetate, 200 nM TF, 25 C, 1 h; high values mean tight binding
Conditions: protein: recombinant; tags: N-terminal polyhistidine and DsRed monomer fusion (pET32a); chain copies: 2; label: CyDye5-dUTP incorporated in the synthesized complementary strand; 3' TTTTT single-stranded linker to array surface; dsDNA, one strand shown
Method in brief: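 The binding signal is fluorescence intensity per feature, in arbitrary units, read on an Axon 4000B scanner. Polyhistidine- and DsRed-tagged transcription factors (N-terminal fusions) from E. coli BL21-CodonPlus were purified on Ni–NTA and applied at 200 nM for 1 h at 25 °C to a double-stranded, BSA-blocked custom Agilent array in buffer with 50 µM zinc acetate.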

| Sequence | binding signal |
| --- | --- |
| GCTGGCAGCCGCTCCCTCTCGCTATGCTAAGTCGACATGCCGGAGTCACCTAGTGCAG | 3520 fluorescence intensity (a.u.) |
| TTCCTCTGACTTGTAGCTCTACAACTACGCGTCGTTTTCTCGGAGTCACCTAGTGCAG | 4860 fluorescence intensity (a.u.) |
| GCACGGCACGGCCCACAAGCGGGCGTGCCTGGGCCGGCTACGGAGTCACCTAGTGCAG | 22600 fluorescence intensity (a.u.) |
| GGTGGGCCGGACCTGGCCCATATGTCACGTGACAAGCTGCCGGAGTCACCTAGTGCAG | 4070 fluorescence intensity (a.u.) |
| TCGCATGACGTCATCGTCAACTTGTTTCAACTTTTCCATCCGGAGTCACCTAGTGCAG | 25300 fluorescence intensity (a.u.) |
| ACCTGGCCCCGTTGCTACCGCTGATCTGGCTTCGTGGACCCGGAGTCACCTAGTGCAG | 5210 fluorescence intensity (a.u.) |
| TAGGAGTTAGGAGGCATCTGCGTCAAGCATTCTCCTGCTGCGGAGTCACCTAGTGCAG | 3950 fluorescence intensity (a.u.) |
| TATTCTCAATATTGTCGTAGGAGTAATTTTCTACTGGTTTCGGAGTCACCTAGTGCAG | 23300 fluorescence intensity (a.u.) |
| ATTCTCTGACCTAAATGTCTATTCCACGTTCAACCATTTTCGGAGTCACCTAGTGCAG | 3540 fluorescence intensity (a.u.) |
| ATGCTTTGCGACTTGCGAGAAGAACTTCTCGTCTTCTCAACGGAGTCACCTAGTGCAG | 25200 fluorescence intensity (a.u.) |
| GGCTAGGCCGAAGACAGTATGGGCCATTCTCGTCAGCGCCCGGAGTCACCTAGTGCAG | 3760 fluorescence intensity (a.u.) |
| CTCATCCCCGTGCGCTGCTGCTGCTGTGTCGTCGTCGTCGCGGAGTCACCTAGTGCAG | 3210 fluorescence intensity (a.u.) |
| GAATGACATTGCCAGCTGTGATAACTAAGTATTTGTGGACCGGAGTCACCTAGTGCAG | 4820 fluorescence intensity (a.u.) |
| TTCGAGGGATATCTCCTCGTTATTTACATGTCATCTAAATCGGAGTCACCTAGTGCAG | 4100 fluorescence intensity (a.u.) |
| CCATACCTCCTATGACAGCTCTGATGATTCCCTTGATTATCGGAGTCACCTAGTGCAG | 3350 fluorescence intensity (a.u.) |
| ACGCGACGGCCACAAGGTGTTCGACGCCGTCTCGCCGGAGCGGAGTCACCTAGTGCAG | 3280 fluorescence intensity (a.u.) |
| GTCTACGTGATGTGTCCGCGTGAAAAGTAACGTGGGCCCCCGGAGTCACCTAGTGCAG | 5440 fluorescence intensity (a.u.) |
| CTCCGCGACGAACTGCCCCGTCGTGTGTCCACGTGGCTCACGGAGTCACCTAGTGCAG | 12600 fluorescence intensity (a.u.) |
| ATTTTGTTTGTTGCATTTGGCATCATCATCTGGAAGAGAGCGGAGTCACCTAGTGCAG | 3200 fluorescence intensity (a.u.) |
| TGCCGATAGACACCGCGCCGTCTGCCATGCTGACGTGTCGCGGAGTCACCTAGTGCAG | 21600 fluorescence intensity (a.u.) |
| ATGAAGGATGCTTAAAAGTCTATTTTGCCTCGGCAAAATACGGAGTCACCTAGTGCAG | 28700 fluorescence intensity (a.u.) |

Copied from the list.
Value of ATTTTGTTTGTTGCATTTGGCATCATCATCTGGAAGAGAGCGGAGTCACCTAGTGCAG under binding signal: 3200 fluorescence intensity (a.u.)
Value of TTCCTCTGACTTGTAGCTCTACAACTACGCGTCGTTTTCTCGGAGTCACCTAGTGCAG under binding signal: 4860 fluorescence intensity (a.u.)
Value of GCACGGCACGGCCCACAAGCGGGCGTGCCTGGGCCGGCTACGGAGTCACCTAGTGCAG under binding signal: 22600 fluorescence intensity (a.u.)
Value of TCGCATGACGTCATCGTCAACTTGTTTCAACTTTTCCATCCGGAGTCACCTAGTGCAG under binding signal: 25300 fluorescence intensity (a.u.)

Next entries

| Sequence | binding signal |
| --- | --- |
| GGCCCAAATTCCAAACGTGGATGCAAACTCTGACTCTGACCGGAGTCACCTAGTGCAG | 3400 fluorescence intensity (a.u.) |
| ACTCCACTTGTGTTGCTACAACTTTACTAAGCTAGCTCAGCGGAGTCACCTAGTGCAG | 3210 fluorescence intensity (a.u.) |
| CTGAAATTCCCTTCCGATATCTAGTCAAACGTCTGATATGCGGAGTCACCTAGTGCAG | 3780 fluorescence intensity (a.u.) |
| AAGGATGGTTGGTTGGTTGGTTGGTTGGTGAGTTGTCTCCCGGAGTCACCTAGTGCAG | 6530 fluorescence intensity (a.u.) |
| CTCAATGCGGTTTGATTGACGTGTAGAGCAGCCATTGGCCCGGAGTCACCTAGTGCAG | 8000 fluorescence intensity (a.u.) |
| AAAGTTTCATGCCTGAGATGTTATGTTACGTGTCTATCCACGGAGTCACCTAGTGCAG | 7680 fluorescence intensity (a.u.) |
| CGGCTTCCCGACGGTGGCGGCGCACGTGGGCGAGGCTGAGCGGAGTCACCTAGTGCAG | 3800 fluorescence intensity (a.u.) |
| AGATTTTGTTACTGCATTTCAACTGTTCCGTTACTGCATTCGGAGTCACCTAGTGCAG | 3650 fluorescence intensity (a.u.) |
| GCGAACGAACGGCGTGGATCTGAAGGTGGTGAGGTCGGCGCGGAGTCACCTAGTGCAG | 3850 fluorescence intensity (a.u.) |
| TTCGTCTCGCAGTTTACAGGCAAAATCTGTATTTTGTTTTCGGAGTCACCTAGTGCAG | 3440 fluorescence intensity (a.u.) |
| AATAACATATTTTGATAAGTTTGGTGACCTGGACGACACGCGGAGTCACCTAGTGCAG | 4760 fluorescence intensity (a.u.) |
| GCCCCGCTTCCTTTATTAGGCCGCGTCACCCCTCTCTCCGCGGAGTCACCTAGTGCAG | 11600 fluorescence intensity (a.u.) |
| TGGCAAGGATGGAGATTGTTTTGGAAAGATATTTTGCGCCCGGAGTCACCTAGTGCAG | 3550 fluorescence intensity (a.u.) |
| CCTGTTGCTAACGGCAGTGCCTATGAGATACAGTTTCTGACGGAGTCACCTAGTGCAG | 3700 fluorescence intensity (a.u.) |
| GTGGAGACCAATGACCTGTGGTTCGTCATCGGCGAGGAGGCGGAGTCACCTAGTGCAG | 4110 fluorescence intensity (a.u.) |
| CTTGTAATTTATGGCTATATACACCTGTCAGCCGGGACTACGGAGTCACCTAGTGCAG | 3420 fluorescence intensity (a.u.) |
| AAGCGTCACGGTTTGAGTGGTACGTGTCTCCAGCGCCGTGCGGAGTCACCTAGTGCAG | 3880 fluorescence intensity (a.u.) |
| TGAGAGCGCGACCGCCGCCACCTCAATAGAAACCGCCGAGCGGAGTCACCTAGTGCAG | 3210 fluorescence intensity (a.u.) |
| TGCATCATCGGTCGCAATGGATAGGAGGATAGGATCGCAGCGGAGTCACCTAGTGCAG | 34200 fluorescence intensity (a.u.) |
| CCTACTCCTGCTCCTGCTGCTCCGCTTCCGCGCCGCCGCCCGGAGTCACCTAGTGCAG | 3790 fluorescence intensity (a.u.) |
| GATTCGTCTCGTAAAATAGGCTAGGGATTATGGAATCGGTCGGAGTCACCTAGTGCAG | 3140 fluorescence intensity (a.u.) |
